The list shows a part of the results.
Experiments:
Test in all cases: log2 fold change, soluble protein after heating vs DMSO (PISA); higher = thermal stabilisation; K562 cells, 10 uM, 30 min; active = over 0.2 and 3.5 SD of the protein, either way, in both replicates (recomputed)
[1] = compound: COC1=CC=C(C=C1)CN2C=CC3=C2C=C(C=C3)C(=O)NO
Outline: (§1)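 K562 cells (2×10^6 cells/mL) were treated with 10 μM compound for 30 min, and aliquots were heated for 3 min over 48°C-58°C. Pooled aliquots were extracted in PBS with 0.5% NP-40 at 4°C, and the supernatant after 21,000xg for 90 min was measured by TMTpro 16plex LC-MS/MS with channel sums equalised. Reported thermal stability, relative to control samples and from duplicates, is a log2 fold change.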

Sequences of proteins named here, by UniProt entry; tags and fusion partners are left off. A change or cut given only in a name is not applied to a line headed by its entry.
UniProt Q9BV10: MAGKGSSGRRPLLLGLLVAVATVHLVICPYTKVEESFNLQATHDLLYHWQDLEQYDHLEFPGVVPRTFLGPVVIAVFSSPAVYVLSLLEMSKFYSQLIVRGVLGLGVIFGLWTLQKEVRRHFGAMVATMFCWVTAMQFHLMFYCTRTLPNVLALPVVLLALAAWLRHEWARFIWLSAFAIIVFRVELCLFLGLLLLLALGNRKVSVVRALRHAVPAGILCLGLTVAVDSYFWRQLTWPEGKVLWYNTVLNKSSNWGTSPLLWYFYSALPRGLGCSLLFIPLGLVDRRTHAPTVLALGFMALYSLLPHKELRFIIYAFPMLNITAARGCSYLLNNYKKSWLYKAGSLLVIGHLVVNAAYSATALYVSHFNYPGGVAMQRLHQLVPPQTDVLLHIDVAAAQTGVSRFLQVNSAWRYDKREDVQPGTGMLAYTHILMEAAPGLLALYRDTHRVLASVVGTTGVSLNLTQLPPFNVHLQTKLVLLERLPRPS
UniProt Q96A54: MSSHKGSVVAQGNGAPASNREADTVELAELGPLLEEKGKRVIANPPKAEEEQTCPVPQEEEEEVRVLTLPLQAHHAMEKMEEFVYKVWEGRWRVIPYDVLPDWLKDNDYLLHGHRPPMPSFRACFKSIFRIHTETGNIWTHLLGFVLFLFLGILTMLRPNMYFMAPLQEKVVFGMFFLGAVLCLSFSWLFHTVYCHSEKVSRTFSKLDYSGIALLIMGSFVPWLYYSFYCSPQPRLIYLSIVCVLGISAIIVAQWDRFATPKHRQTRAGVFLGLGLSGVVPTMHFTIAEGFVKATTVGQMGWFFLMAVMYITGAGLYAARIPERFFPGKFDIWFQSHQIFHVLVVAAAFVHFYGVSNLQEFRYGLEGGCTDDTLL
UniProt Q96F25: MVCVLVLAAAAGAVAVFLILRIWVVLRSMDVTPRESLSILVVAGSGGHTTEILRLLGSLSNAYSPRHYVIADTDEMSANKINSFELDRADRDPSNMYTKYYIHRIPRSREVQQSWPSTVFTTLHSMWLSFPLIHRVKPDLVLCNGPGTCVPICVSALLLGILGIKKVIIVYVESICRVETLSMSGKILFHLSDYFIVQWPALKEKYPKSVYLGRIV
UniProt Q9UPW5: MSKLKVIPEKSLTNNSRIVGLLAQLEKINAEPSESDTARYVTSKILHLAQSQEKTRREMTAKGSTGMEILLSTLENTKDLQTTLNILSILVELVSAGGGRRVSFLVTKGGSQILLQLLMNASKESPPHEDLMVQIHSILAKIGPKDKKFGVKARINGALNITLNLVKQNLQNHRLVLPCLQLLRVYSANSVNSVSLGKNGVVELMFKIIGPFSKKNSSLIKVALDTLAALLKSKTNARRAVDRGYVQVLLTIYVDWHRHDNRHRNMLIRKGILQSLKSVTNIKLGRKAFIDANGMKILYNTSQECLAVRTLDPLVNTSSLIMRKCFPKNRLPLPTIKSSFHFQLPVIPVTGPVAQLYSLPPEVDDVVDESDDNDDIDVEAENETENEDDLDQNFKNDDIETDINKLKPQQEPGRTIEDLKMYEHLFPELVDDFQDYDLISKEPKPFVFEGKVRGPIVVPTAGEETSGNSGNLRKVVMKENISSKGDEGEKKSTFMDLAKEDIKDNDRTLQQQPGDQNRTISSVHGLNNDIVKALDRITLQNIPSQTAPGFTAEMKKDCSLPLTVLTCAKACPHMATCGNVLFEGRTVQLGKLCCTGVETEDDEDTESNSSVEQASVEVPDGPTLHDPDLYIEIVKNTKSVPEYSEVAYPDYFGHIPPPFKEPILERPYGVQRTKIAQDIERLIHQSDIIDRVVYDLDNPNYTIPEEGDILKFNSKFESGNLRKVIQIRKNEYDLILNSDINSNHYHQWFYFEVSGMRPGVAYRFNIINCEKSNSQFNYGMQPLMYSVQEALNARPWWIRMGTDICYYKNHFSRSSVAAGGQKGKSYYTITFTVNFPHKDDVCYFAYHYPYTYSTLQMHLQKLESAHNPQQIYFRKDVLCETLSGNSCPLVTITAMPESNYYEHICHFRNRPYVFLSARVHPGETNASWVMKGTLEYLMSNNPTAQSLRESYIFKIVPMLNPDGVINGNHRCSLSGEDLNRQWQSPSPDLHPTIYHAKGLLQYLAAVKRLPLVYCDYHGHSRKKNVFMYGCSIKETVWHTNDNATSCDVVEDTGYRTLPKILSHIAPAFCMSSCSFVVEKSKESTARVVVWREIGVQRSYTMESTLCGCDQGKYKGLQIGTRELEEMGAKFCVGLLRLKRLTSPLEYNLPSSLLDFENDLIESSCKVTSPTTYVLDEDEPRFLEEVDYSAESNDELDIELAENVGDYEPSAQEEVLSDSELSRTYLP
UniProt P49189: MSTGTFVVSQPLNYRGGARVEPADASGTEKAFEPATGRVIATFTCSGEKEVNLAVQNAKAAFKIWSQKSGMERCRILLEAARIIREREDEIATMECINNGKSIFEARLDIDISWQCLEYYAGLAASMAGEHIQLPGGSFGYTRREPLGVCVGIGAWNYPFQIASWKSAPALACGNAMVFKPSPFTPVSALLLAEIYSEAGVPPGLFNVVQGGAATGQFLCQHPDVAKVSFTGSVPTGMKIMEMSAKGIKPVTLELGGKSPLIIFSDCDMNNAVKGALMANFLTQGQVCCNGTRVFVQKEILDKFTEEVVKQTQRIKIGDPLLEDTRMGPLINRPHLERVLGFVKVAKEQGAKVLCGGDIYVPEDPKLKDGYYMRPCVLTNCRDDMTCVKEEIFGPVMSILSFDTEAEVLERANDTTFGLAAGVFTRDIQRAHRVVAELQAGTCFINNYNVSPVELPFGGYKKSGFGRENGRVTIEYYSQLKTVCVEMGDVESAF
UniProt Q9NRZ5: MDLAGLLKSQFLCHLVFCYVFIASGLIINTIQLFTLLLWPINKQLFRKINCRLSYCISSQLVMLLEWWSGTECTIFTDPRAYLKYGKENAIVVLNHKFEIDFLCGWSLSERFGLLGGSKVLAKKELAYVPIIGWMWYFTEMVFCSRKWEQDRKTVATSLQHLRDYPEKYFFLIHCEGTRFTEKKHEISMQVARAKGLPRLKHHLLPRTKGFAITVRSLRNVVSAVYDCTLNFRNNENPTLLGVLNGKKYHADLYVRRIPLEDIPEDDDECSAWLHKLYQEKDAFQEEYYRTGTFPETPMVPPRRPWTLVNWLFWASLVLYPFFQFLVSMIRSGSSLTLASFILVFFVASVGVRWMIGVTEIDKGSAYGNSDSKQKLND
UniProt P07327: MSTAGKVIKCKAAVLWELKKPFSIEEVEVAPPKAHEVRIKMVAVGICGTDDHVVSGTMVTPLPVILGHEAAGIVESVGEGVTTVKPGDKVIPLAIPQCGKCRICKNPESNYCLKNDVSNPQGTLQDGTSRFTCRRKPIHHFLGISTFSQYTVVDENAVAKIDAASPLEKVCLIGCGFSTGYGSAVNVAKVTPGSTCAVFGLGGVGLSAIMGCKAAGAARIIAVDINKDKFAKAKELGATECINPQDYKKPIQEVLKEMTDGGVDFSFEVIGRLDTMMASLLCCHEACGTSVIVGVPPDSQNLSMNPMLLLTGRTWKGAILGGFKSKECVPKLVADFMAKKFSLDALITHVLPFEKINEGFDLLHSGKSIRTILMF
UniProt P35611: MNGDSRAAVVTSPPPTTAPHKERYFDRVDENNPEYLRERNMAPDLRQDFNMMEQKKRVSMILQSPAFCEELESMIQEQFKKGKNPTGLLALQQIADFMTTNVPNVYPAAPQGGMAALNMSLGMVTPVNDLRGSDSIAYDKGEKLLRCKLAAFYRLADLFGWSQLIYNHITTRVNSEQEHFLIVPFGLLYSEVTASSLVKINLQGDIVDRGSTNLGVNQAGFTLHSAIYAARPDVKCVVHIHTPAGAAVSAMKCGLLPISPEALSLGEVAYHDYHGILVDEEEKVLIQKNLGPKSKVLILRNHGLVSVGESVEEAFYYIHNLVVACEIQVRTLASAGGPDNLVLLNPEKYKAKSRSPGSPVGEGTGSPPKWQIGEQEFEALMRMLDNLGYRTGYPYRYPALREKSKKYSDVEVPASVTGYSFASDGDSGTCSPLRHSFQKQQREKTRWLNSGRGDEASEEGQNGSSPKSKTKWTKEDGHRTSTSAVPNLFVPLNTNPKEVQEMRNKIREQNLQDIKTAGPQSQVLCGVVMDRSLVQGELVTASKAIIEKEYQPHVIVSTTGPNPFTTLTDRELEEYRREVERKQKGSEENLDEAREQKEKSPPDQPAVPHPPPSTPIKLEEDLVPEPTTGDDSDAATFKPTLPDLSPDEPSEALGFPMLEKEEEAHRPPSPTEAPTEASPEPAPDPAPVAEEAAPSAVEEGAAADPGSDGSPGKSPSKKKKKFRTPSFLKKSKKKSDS
UniProt Q13686: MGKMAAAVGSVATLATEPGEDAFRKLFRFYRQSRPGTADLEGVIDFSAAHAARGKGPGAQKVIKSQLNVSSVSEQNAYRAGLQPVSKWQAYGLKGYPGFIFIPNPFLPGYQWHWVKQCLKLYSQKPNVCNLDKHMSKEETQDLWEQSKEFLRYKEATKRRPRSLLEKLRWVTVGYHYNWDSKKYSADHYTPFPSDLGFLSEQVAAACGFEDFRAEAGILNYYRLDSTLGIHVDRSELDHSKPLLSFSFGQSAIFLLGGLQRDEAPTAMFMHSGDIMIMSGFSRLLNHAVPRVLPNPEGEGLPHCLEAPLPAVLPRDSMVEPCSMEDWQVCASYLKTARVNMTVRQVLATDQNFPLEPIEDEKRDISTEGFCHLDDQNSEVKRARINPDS
UniProt Q9H2P0: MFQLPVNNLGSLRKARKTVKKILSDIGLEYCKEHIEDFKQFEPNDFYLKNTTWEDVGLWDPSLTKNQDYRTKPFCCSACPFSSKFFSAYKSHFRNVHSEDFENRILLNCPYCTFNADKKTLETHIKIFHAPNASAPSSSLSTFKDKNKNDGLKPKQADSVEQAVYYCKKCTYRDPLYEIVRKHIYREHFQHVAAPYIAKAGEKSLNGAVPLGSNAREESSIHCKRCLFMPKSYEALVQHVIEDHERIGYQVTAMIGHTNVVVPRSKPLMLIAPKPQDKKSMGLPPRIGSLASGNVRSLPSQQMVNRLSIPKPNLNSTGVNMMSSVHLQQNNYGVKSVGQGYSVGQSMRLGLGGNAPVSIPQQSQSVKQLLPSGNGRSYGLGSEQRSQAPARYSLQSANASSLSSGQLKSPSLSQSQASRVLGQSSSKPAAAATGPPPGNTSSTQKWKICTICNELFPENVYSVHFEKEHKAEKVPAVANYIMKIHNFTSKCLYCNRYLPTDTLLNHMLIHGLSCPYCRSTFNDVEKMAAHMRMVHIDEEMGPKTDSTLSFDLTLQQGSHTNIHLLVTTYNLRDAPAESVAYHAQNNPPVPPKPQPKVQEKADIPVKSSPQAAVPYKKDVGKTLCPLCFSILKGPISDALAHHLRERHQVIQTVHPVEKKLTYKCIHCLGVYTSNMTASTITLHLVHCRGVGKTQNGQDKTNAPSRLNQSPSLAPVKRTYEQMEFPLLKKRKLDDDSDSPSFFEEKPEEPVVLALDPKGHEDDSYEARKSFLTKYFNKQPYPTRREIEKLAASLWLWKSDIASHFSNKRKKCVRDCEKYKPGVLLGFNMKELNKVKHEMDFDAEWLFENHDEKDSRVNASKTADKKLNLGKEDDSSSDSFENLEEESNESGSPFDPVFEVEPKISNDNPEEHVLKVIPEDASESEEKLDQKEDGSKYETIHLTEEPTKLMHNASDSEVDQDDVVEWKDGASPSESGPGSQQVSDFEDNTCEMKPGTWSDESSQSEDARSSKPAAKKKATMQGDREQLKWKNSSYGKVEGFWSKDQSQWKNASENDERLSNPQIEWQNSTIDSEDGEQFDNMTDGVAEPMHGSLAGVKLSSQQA
UniProt Q9NYG5, whole entry, looked up: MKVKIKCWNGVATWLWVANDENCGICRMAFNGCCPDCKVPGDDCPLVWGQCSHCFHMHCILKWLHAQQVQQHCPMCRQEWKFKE
UniProt Q86V24: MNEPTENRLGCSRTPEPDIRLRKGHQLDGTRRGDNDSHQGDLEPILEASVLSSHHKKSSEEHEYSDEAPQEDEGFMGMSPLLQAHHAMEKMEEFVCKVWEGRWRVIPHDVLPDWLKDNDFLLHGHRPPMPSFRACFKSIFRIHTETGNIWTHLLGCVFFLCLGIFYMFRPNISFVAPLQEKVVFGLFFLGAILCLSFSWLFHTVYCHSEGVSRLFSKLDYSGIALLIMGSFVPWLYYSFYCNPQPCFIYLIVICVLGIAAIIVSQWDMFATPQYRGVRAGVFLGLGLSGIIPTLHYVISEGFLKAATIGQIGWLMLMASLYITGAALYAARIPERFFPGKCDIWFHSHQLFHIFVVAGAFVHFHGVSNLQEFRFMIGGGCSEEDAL
UniProt Q9Y4X0: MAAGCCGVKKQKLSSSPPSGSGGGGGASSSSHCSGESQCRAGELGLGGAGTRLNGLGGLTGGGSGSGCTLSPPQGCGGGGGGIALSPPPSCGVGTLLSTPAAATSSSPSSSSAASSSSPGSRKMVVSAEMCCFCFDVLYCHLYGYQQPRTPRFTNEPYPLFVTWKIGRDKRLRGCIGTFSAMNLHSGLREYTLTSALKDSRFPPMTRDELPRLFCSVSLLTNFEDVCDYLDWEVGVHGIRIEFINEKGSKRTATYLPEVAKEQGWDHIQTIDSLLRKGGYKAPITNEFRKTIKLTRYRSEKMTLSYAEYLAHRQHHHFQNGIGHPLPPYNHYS

[2] = compound: CON(C)C(=O)N1N=C(c2cc(F)ccc2F)S[C@@]1(CCCN)c1ccccc1 [filanesib]
Outline: as §1

[3] = compound: CO[C@H]1C[C@@H]2CC[C@@H](C)[C@@](O)(O2)C(=O)C(=O)N2CCCC[C@H]2C(=O)O[C@H]([C@H](C)C[C@@H]2CC[C@H](n3cnnn3)[C@H](OC)C2)CC(=O)[C@H](C)/C=C(\C)[C@@H](O)[C@@H](OC)C(=O)[C@H](C)C[C@H](C)/C=C/C=C/C=C/1C [zotarolimus]
Outline: as §1

[4] = compound: COc1cc(C(=O)O)ccc1NC(=O)[C@@H]1N[C@@H](CC(C)(C)C)[C@](C#N)(c2ccc(Cl)cc2F)[C@H]1c1cccc(Cl)c1F [idasanutlin]
Outline: as §1

[5] = compound: COc1cc(Nc2ncc3c(n2)-c2ccc(Cl)cc2C(c2c(F)cccc2OC)=NC3)ccc1C(=O)O [alisertib]
Outline: as §1

[6] = compound: COc1cc2nc(-c3cc(F)ccc3O)nc(N[C@@H]3CNC[C@H]3C(C)(C)O)c2cc1OC
Outline: as §1

[7] = compound: COc1cccc2cc(-c3nc([C@H]4CC[C@H](C(=O)O)CC4)n4ncnc(N)c34)[nH]c12
Outline: as §1

[8] = compound: CS(=O)(=O)CCNCc1ccc(-c2ccc3ncnc(Nc4ccc(OCc5cccc(F)c5)c(Cl)c4)c3c2)o1 [lapatinib]
Outline: as §1

[9] = compound: CS(=O)(=O)c1ccc(-c2cnc(N)c(C(=O)Nc3ccccc3)n2)cc1
Outline: as §1

[10] = compound: C[C@@H](Oc1cc(-c2cnn(C3CCNCC3)c2)cnc1N)c1c(Cl)ccc(F)c1Cl [crizotinib]
Outline: as §1

[11] = compound: C[C@@H]1COCCN1C2=NC(=NC(=C2)C3(CC3)S(=O)(=O)C)C4=C5C=CNC5=CC=C4
Outline: as §1

[12] = compound: C[C@H](C1=CC=C(C=C1)C(=O)NC2=C3C=CNC3=NC=C2)N
Outline: as §1

[13] = compound: C[C@H](Nc1ncnc2nc[nH]c12)c1cc2cccc(Cl)c2c(=O)n1-c1ccccc1 [duvelisib]
Outline: as §1

[14] = compound: Cc1cc(Nc2cc(N3CCN(C)CC3)nc(Sc3ccc(NC(=O)C4CC4)cc3)n2)n[nH]1 [tozasertib]
Outline: as §1

[15] = compound: Cc1cc(SCc2sc(-c3ccc(C(F)(F)F)cc3)nc2C)ccc1OCC(=O)O
Outline: as §1

[16] = compound: Cc1ccc(-n2nc(C(C)(C)C)cc2NC(=O)Nc2ccc(OCCN3CCOCC3)c3ccccc23)cc1 [doramapimod]
Outline: as §1

[17] = compound: Cc1ccc(C(=O)N(CCCN)[C@@H](c2nc3cc(Cl)ccc3c(=O)n2Cc2ccccc2)C(C)C)cc1 [ispinesib]
Outline: as §1

[18] = compound: COc1cc2ncnc(Nc3ccc(F)c(Cl)c3)c2cc1OCCCN1CCOCC1 [gefitinib]
Outline: as §1

[19] = compound: CS(=O)(=O)N1CCN(Cc2cc3nc(-c4cccc5[nH]ncc45)nc(N4CCOCC4)c3s2)CC1 [pictilisib]
Outline: as §1

[20] = compound: Cc1cc(Nc2cc(CN3CCOCC3)c3nc(C)c(Cc4ccc(Cl)cc4F)n3n2)n[nH]1 [gandotinib]
Outline: as §1

| Target | log2 fold change [1] | log2 fold change [2] | log2 fold change [3] | log2 fold change [4] | log2 fold change [5] | log2 fold change [6] | log2 fold change [7] | log2 fold change [8] | log2 fold change [9] | log2 fold change [10] | log2 fold change [11] | log2 fold change [12] | log2 fold change [13] | log2 fold change [14] | log2 fold change [15] | log2 fold change [16] | log2 fold change [17] | log2 fold change [18] | log2 fold change [19] | log2 fold change [20] |
| --- | --- | --- | --- | --- | --- | --- | --- | --- | --- | --- | --- | --- | --- | --- | --- | --- | --- | --- | --- | --- |
| ALG12 (UniProt Q9BV10) | inactive: -0.093 | inactive: -0.168 | inactive: 0.083 | inactive: -0.049 | inactive: 0.006 | inactive: 0 | inactive: 0.112 | inactive: -0.014 | inactive: 0.002 | inactive: 0.013 | inactive: 0.105 | inactive: -0.09 | inactive: -0.004 | inactive: -0.12 | inactive: -0.066 | inactive: 0.024 |  |  |  |  |
| AGAP1 (UniProt Q9UPQ3) | inactive: 0.041 |  | inactive: 0.072 |  |  |  |  |  |  | inactive: -0.098 |  | inactive: -0.041 | inactive: -0.091 |  | inactive: 0.034 | inactive: 0.097 | inactive: -0.011 |  |  |  |
| ADIPOR1 (UniProt Q96A54) | inactive: 0.056 | inactive: -0.081 |  |  | inactive: -0.139 | inactive: -0.038 | inactive: 0.111 | inactive: 0.025 | inactive: 0.004 | inactive: 0.08 | inactive: -0.191 |  | inactive: 0.086 |  | inactive: 0.074 | inactive: -0.154 | inactive: -0.128 | inactive: 0.007 |  |  |
| ALG14 (UniProt Q96F25) | inactive: -0.2 |  | inactive: -0.109 | inactive: -0.091 | inactive: 0.112 | inactive: -0.19 | inactive: 0.077 | inactive: 0.168 |  | inactive: -0.034 | inactive: -0.117 | inactive: -0.042 |  |  | inactive: -0.002 | inactive: -0.038 | inactive: -0.018 | inactive: 0.074 | inactive: -0.467 | active: -0.798 |
| AGTPBP1 isoform 3 (UniProt Q9UPW5) | inactive: 0.01 |  |  |  | inactive: -0.024 |  | inactive: 0.132 |  |  | inactive: 0.009 |  |  | inactive: 0.151 |  | inactive: -0.111 | inactive: -0.123 | inactive: -0.033 |  |  |  |
| ALDH9A1 (UniProt P49189) |  | inactive: -0.149 | inactive: -0.164 | inactive: -0.073 | inactive: -0.091 | inactive: 0.038 | inactive: 0.081 | inactive: -0.037 | inactive: 0.084 |  | inactive: 0.061 | inactive: -0.116 |  |  | inactive: 0.045 |  | inactive: -0.243 | inactive: 0.039 | inactive: -0.124 | active: 0.356 |
| AGPAT4 (UniProt Q9NRZ5) |  | inactive: -0.154 | inactive: 0.012 |  | inactive: -0.067 | inactive: 0.109 | inactive: -0.081 | inactive: 0.054 | inactive: 0.003 |  |  | inactive: 0.002 | inactive: 0.098 | inactive: -0.013 | inactive: 0.083 |  | inactive: -0.059 | inactive: 0.04 | inactive: 0.034 | inactive: 0.007 |
| ADH1A (UniProt P07327) | inactive: -0.007 | inactive: -0.021 |  |  |  |  |  |  | inactive: -0.242 | inactive: 0.064 |  |  |  |  |  | inactive: -0.005 |  |  |  |  |
| ADD1 isoform 4 (UniProt P35611) | inactive: -0.054 |  | inactive: -0.065 |  |  |  |  |  |  | inactive: 0.152 | inactive: -0.213 | inactive: 0.186 |  |  |  | inactive: -0.075 |  |  | inactive: -0.068 | inactive: -0.153 |
| ALKBH1 (UniProt Q13686) | inactive: -0.058 |  | inactive: -0.005 | inactive: -0.226 |  | inactive: -0.043 |  | inactive: -0.014 |  | inactive: 0.095 | inactive: -0.026 | inactive: 0.053 | inactive: 0.067 | inactive: 0.101 | inactive: -0.005 | inactive: 0.091 | inactive: -0.02 | inactive: -0.096 | inactive: 0.074 | inactive: 0.151 |
| ADPRH (UniProt P54922) | inactive: 0.098 | inactive: -0.088 |  |  | inactive: -0.099 | inactive: 0.135 | inactive: -0.033 | inactive: 0.05 | inactive: 0.123 | inactive: 0.056 | inactive: 0.201 |  |  |  |  | inactive: -0.071 | inactive: -0.002 | inactive: 0.013 | inactive: -0.107 | inactive: 0.157 |
| ADNP (UniProt Q9H2P0) | inactive: -0.07 | inactive: 0.115 |  | inactive: 0.121 | inactive: 0.1 |  | inactive: -0.064 |  | inactive: 0.002 | inactive: 0.05 |  |  |  |  |  | inactive: 0.001 |  | inactive: 0.047 | inactive: -0.374 | inactive: -0.14 |
| ALDH2 isoform 2 (UniProt P05091) |  | inactive: 0.013 |  | inactive: 0 |  | inactive: 0.166 |  | inactive: -0.266 | inactive: 0.209 |  | inactive: 0.244 |  |  |  |  |  | inactive: -0.214 |  | inactive: -0.035 | inactive: -0.027 |
| ANAPC11 (UniProt Q9NYG5) |  |  | inactive: 0.003 |  |  |  |  |  |  |  |  | inactive: -0.027 | inactive: 0.029 |  | inactive: -0.048 |  |  |  |  |  |
| ALMS1 (UniProt Q8TCU4) |  |  |  |  |  |  |  |  |  |  |  |  |  |  |  |  |  | inactive: 0.195 | inactive: 0.133 | inactive: 0.013 |
| AGTRAP isoform 2 (UniProt Q6RW13) |  |  |  |  |  |  |  |  |  |  |  |  |  | inactive: 0.005 |  |  |  |  | inactive: -0.004 | inactive: 0.006 |
| ADIPOR2 (UniProt Q86V24) |  |  | inactive: -0.07 | inactive: 0.003 |  | inactive: -0.012 |  | inactive: 0.023 |  |  |  | inactive: 0.099 | inactive: 0.022 | inactive: -0.01 | inactive: -0.069 |  |  |  | inactive: 0.076 | inactive: -0.047 |
| AMMECR1 (UniProt Q9Y4X0) |  |  | inactive: 0.066 | inactive: 0.058 |  |  |  |  |  |  | inactive: 0.05 | inactive: -0.219 | inactive: 0.034 |  | inactive: 0.056 |  | inactive: -0.57 |  |  |  |

A different layout for part of the listing above:
Target	log2 fold change [1]	log2 fold change [2]	log2 fold change [3]	log2 fold change [4]	log2 fold change [5]	log2 fold change [6]	log2 fold change [7]	log2 fold change [8]	log2 fold change [9]	log2 fold change [10]	log2 fold change [11]	log2 fold change [12]	log2 fold change [13]	log2 fold change [14]	log2 fold change [15]	log2 fold change [16]	log2 fold change [17]	log2 fold change [18]	log2 fold change [19]	log2 fold change [20]
ADIPOR1 (UniProt Q96A54)	inactive: 0.056	inactive: -0.081			inactive: -0.139	inactive: -0.038	inactive: 0.111	inactive: 0.025	inactive: 0.004	inactive: 0.08	inactive: -0.191		inactive: 0.086		inactive: 0.074	inactive: -0.154	inactive: -0.128	inactive: 0.007		
ALG14 (UniProt Q96F25)	inactive: -0.2		inactive: -0.109	inactive: -0.091	inactive: 0.112	inactive: -0.19	inactive: 0.077	inactive: 0.168		inactive: -0.034	inactive: -0.117	inactive: -0.042			inactive: -0.002	inactive: -0.038	inactive: -0.018	inactive: 0.074	inactive: -0.467	active: -0.798
AGTPBP1 isoform 3 (UniProt Q9UPW5)	inactive: 0.01				inactive: -0.024		inactive: 0.132			inactive: 0.009			inactive: 0.151		inactive: -0.111	inactive: -0.123	inactive: -0.033			
ALDH9A1 (UniProt P49189)		inactive: -0.149	inactive: -0.164	inactive: -0.073	inactive: -0.091	inactive: 0.038	inactive: 0.081	inactive: -0.037	inactive: 0.084		inactive: 0.061	inactive: -0.116			inactive: 0.045		inactive: -0.243	inactive: 0.039	inactive: -0.124	active: 0.356
AGPAT4 (UniProt Q9NRZ5)		inactive: -0.154	inactive: 0.012		inactive: -0.067	inactive: 0.109	inactive: -0.081	inactive: 0.054	inactive: 0.003			inactive: 0.002	inactive: 0.098	inactive: -0.013	inactive: 0.083		inactive: -0.059	inactive: 0.04	inactive: 0.034	inactive: 0.007

— the supplement of paper PMC10849652
